Laboratory results reported in PMC9264838.
Results are given in words; binding and its absence hold for the method and conditions named. Binding seen in cells or lysates may run through a third protein. These calls come from enrichment with a bait or labelling near it, and not all partners need be listed.

Protein sequences, listed by entry. Tags and fused reporters are not part of them.
UniProt P08238: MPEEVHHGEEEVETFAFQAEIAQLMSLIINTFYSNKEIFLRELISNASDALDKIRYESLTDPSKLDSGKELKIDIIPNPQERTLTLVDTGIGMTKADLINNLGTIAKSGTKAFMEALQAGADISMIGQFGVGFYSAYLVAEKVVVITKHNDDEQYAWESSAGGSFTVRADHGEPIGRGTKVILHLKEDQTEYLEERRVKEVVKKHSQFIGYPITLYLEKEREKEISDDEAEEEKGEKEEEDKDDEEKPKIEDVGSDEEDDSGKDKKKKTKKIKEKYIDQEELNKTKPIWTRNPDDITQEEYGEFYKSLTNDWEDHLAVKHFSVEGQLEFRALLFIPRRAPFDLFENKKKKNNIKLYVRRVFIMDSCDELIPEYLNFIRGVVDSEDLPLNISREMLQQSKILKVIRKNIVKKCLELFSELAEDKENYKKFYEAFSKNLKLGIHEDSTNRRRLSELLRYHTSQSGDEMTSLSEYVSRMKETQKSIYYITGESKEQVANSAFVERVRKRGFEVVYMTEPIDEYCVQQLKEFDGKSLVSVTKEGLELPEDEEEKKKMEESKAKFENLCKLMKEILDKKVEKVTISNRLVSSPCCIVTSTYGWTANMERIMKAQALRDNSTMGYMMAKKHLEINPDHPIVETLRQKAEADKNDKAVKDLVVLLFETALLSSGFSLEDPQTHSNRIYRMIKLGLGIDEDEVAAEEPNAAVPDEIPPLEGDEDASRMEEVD
UniProt P08670: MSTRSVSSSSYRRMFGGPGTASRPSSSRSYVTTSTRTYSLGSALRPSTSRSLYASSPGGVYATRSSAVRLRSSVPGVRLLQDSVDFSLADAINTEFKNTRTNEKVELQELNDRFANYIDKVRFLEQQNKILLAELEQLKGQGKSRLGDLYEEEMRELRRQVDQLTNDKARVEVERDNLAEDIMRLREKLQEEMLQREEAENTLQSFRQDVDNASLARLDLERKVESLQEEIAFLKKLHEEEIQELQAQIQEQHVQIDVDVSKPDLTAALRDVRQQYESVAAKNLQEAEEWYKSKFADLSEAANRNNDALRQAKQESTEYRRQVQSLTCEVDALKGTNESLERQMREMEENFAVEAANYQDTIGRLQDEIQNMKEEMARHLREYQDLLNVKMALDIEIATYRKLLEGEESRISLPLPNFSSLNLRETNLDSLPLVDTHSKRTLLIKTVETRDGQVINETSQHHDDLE

Molecular target: heat shock protein 90 beta (Hsp90ab1) (human (endogenous in C28/I2)) (UniProt P08238)
Experiment: affinity purification with mass spectrometry; immunoprecipitation with an antibody against Hsp90ab1 on protein A sepharose, on-bead trypsin/LysC digestion, LC-MS/MS; sample named as tumor cells and their ECM; search against the Uniprot mouse protein database

binding: binds
Substance: vimentin (from UniProt P08670 1-466)
